Drawing on publication doi:10.1101/172809, this text covers binding for two molecules.

Chains of the proteins cited; added tags and fusions are not shown. Lines headed by an entry give the natural chain unless they say otherwise; changes in a name come on top. A line that says so, or that is headed by a name, gives the form on record, which may keep a tag or linker.
Dynamin-Related Protein 1 (DRP1), wild type, full length, isoform 2 (O00429, form named): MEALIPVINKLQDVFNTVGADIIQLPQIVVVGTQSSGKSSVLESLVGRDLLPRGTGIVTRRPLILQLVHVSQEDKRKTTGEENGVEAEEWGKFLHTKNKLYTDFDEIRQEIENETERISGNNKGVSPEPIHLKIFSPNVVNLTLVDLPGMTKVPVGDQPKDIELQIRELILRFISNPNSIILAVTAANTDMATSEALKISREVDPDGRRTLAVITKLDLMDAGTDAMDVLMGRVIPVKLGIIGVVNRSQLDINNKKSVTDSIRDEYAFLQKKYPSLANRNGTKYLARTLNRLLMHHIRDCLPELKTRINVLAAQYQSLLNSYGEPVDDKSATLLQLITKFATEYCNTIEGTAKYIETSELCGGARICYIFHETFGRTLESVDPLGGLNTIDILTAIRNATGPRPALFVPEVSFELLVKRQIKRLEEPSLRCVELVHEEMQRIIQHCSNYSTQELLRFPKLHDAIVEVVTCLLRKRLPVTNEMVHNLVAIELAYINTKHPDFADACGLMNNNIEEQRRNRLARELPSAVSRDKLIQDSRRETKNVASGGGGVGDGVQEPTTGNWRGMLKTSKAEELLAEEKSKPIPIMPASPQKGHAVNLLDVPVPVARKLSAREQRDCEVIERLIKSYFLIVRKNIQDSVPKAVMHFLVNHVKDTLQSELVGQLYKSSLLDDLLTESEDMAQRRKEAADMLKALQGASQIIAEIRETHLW
DRP1_(D221A), full length (O00429, form named): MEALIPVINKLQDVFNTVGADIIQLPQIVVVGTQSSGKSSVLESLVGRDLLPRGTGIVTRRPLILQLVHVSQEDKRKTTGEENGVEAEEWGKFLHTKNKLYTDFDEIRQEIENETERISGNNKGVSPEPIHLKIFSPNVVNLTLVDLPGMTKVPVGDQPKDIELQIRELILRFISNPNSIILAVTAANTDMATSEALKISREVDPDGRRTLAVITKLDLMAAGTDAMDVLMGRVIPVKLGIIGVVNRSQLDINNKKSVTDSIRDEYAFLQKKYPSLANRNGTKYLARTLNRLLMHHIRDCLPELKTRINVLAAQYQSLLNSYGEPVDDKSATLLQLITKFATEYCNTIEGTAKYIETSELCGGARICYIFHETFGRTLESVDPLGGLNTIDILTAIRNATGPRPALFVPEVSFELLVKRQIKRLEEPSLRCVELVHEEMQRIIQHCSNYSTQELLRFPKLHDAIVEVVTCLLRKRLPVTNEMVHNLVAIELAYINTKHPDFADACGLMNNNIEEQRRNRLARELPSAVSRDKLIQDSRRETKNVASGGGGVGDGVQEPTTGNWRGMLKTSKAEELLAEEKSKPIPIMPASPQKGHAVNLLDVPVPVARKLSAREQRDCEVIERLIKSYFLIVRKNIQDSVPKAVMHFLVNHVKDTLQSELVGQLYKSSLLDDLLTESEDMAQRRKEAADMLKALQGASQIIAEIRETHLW
DRP1_(D190A), full length (O00429, form named): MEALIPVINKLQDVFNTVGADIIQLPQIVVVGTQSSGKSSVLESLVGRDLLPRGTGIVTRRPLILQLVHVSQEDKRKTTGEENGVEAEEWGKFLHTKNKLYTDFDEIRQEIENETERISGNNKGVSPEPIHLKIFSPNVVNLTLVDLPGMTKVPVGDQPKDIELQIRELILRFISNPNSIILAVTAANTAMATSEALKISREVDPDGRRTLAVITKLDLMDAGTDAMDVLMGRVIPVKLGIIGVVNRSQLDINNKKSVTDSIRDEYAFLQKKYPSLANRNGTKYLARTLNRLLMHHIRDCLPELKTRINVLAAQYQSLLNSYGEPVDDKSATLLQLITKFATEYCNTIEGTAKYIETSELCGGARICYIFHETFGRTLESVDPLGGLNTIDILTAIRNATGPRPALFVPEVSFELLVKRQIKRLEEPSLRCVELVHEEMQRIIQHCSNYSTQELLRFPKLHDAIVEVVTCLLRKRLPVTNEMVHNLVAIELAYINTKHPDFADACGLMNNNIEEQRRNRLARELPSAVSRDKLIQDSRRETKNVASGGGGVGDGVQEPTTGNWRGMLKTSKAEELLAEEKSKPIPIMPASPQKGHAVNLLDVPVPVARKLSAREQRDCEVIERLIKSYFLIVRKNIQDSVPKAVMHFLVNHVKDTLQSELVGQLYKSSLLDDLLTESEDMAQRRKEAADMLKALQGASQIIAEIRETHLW
DRP1_(G362D), full length, disease-associated mutant (O00429, form named): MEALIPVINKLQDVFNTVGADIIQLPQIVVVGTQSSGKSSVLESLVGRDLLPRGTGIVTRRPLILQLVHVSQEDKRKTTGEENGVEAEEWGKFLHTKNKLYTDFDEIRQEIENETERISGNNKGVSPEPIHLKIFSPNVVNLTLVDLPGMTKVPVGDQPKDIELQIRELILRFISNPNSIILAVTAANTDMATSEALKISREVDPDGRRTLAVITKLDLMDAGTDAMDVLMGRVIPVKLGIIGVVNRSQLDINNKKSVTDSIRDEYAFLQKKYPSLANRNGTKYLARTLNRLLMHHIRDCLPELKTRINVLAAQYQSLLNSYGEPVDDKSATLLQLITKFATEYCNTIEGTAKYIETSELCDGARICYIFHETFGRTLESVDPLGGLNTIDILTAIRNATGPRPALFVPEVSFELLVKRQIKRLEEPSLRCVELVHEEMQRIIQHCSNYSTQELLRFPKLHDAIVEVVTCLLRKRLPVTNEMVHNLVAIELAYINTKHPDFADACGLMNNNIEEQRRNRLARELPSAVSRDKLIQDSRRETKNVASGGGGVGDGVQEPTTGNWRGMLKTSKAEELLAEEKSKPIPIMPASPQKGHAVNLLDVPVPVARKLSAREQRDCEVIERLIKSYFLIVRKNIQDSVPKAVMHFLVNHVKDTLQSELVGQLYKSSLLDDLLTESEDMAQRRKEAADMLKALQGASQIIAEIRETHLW

What all share (assay): negative stain electron microscopy of assembly and coassembly reactions
Experiment [1] concerns the target Dynamin-Related Protein 1 (DRP1), wild type, full length, isoform 2 (human) (UniProt O00429).
Experiment [2] concerns the target DRP1_(D221A), full length (human) (UniProt O00429).
Experiment [3] has as its target DRP1_(D190A), full length (human) (UniProt O00429).
For experiment [4], the target named is DRP1_(G362D), full length, disease-associated mutant (human) (UniProt O00429).

No constants are given. Whether binding was seen depends on the method and setting. Some results given as binding are weak or reduced against the parent protein; the word gives no strength.

B1: Mitochondrial Dynamics 51, MID51_(132-463) (domain or fragment, UniProt Q9NQG6 132-463)
chain: RMSLQEKLLTYYRNRAAIPAGEQARAKQAAVDICAELRSFLRAKLPDMPLRDMYLSGSLYDDLQVVTADHIQLIVPLVLEQNLWSCIPGEDTIMNVPGFFLVRRENPEYFPRGSSYWDRCVVGGYLSPKTVADTFEKVVAGSINWPAIGSLLDYVIRPAPPPEALTLEVQYERDKHLFIDFLPSVTLGDTVLVAKPHRLAQYDNLWRLSLRPAETARLRALDQADSGCRSLCLKILKAICKSTPALGHLTASQLTNVILHLAQEEADWSPDMLADRFLQALRGLISYLEAGVLPSALNPKVNLFAELTPEEIDELGYTLYCSLSEPEVLLQT
With B1, the binding result in experiment [1] is listed as “binds”.

B2: Mitochondrial Dynamics 49, MID49_(126-454) (domain or fragment, UniProt Q96C03-1 126-454)
chain: TLQERLLAFERDRVTIPAAQVALAKQLAGDIALELQAYFRSKFPELPFGAFVPGGPLYDGLQAGAADHVRLLVPLVLEPGLWSLVPGVDTVARDPRCWAVRRTQLEFCPRGSSPWDRFLVGGYLSSRVLLELLRKALAASVNWPAIGSLLGCLIRPSMASEELLLEVQHERLELTVAVLVAVPGVDADDRLLLAWPLEGLAGNLWLQDLYPVEAARLRALDDHDAGTRRRLLLLLCAVCRGCSALGQLGRGHLTQVVLRLGEDNVDWTEEALGERFLQALELLIGSLEQASLPCHFNPSVNLFSSLREEEIDDIGYALYSGLQEPEGLL
On to B2, for which the binding entry in experiment [2], in experiment [3] and in experiment [4] was “no binding” throughout.
